# In the supplement of paper PMC11732987, “Enantioselective OTUD7B fragment discovery through chemoproteomics screening and high-throughput optimisation” (Communications Chemistry, 2025):
# Sequences of proteins named here, by UniProt entry; tags and fusion partners are left off. A change or cut given only in a name is not applied to a line headed by its entry. Residues count along the entry.
# UniProt O95235: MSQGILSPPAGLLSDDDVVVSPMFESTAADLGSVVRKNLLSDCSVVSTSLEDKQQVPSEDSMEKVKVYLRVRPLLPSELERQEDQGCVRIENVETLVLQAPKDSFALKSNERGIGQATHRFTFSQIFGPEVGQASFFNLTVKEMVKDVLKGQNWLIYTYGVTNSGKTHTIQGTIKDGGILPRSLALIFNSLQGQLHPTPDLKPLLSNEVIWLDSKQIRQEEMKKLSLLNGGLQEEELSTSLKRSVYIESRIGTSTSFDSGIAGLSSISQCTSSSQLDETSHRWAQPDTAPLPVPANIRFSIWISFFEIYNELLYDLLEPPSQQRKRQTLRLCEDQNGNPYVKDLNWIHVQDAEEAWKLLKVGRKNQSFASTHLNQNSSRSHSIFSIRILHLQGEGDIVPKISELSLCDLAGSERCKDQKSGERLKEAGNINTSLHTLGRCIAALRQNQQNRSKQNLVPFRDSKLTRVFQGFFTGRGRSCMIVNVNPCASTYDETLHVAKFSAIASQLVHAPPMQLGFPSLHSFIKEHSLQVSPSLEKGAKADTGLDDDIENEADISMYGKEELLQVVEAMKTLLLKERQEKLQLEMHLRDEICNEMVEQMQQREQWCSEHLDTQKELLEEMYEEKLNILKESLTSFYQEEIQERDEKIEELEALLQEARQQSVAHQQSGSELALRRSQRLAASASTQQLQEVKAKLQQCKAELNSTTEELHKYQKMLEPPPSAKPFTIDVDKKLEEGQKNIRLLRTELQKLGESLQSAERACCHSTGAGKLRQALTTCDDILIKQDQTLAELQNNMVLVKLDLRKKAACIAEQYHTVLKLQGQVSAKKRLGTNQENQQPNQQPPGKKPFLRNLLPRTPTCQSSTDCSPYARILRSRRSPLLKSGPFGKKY
# UniProt Q8IY47: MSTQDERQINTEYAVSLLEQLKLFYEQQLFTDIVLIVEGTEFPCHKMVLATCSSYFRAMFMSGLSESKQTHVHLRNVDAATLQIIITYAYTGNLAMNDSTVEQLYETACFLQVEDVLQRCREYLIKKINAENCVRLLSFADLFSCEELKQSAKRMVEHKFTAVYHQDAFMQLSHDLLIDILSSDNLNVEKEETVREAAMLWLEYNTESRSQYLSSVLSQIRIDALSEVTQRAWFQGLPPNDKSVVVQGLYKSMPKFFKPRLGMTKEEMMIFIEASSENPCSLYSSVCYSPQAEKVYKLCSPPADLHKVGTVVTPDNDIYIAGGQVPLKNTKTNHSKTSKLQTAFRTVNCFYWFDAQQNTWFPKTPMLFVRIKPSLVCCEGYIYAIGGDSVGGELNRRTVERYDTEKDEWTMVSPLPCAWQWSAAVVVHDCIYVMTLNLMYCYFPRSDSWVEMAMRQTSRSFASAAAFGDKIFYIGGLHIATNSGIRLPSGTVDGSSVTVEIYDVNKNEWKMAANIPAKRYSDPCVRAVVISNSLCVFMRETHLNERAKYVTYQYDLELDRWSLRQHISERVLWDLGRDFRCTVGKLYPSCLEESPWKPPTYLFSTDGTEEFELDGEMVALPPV
# UniProt Q9Y4C1: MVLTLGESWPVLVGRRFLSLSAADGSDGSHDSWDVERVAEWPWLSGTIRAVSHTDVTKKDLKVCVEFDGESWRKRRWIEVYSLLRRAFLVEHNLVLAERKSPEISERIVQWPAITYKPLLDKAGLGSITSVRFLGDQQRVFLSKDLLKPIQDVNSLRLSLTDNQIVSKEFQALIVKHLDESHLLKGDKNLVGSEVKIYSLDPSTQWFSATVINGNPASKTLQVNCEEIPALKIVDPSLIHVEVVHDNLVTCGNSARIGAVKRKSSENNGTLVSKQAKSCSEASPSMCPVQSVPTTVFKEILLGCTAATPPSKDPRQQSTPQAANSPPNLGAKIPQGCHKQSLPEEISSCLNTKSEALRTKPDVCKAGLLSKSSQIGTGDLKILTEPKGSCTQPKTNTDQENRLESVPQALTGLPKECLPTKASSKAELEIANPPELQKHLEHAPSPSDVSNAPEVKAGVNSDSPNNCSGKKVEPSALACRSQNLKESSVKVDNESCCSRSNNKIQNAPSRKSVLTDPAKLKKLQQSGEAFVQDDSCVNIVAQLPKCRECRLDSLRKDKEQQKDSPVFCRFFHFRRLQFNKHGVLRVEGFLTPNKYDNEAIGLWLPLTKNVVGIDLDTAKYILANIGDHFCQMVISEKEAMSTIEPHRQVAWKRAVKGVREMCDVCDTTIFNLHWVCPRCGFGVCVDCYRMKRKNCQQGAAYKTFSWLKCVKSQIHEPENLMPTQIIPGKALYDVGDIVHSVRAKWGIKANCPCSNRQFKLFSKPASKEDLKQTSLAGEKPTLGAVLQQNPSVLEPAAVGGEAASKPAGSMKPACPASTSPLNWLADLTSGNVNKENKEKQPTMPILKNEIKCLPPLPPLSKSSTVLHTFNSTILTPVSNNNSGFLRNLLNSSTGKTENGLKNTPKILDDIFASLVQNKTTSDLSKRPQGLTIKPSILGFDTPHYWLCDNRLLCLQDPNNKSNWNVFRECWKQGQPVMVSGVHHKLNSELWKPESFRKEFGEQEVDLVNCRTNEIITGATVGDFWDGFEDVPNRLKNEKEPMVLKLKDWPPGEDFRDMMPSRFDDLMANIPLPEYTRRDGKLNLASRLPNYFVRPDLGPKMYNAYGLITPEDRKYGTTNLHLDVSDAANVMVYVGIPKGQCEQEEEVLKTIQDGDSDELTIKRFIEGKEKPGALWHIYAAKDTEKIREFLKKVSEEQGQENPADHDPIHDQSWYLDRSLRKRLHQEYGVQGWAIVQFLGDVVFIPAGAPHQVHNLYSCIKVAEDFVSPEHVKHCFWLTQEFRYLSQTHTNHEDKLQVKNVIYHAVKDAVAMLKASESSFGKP
# UniProt Q14573, whole entry, looked up: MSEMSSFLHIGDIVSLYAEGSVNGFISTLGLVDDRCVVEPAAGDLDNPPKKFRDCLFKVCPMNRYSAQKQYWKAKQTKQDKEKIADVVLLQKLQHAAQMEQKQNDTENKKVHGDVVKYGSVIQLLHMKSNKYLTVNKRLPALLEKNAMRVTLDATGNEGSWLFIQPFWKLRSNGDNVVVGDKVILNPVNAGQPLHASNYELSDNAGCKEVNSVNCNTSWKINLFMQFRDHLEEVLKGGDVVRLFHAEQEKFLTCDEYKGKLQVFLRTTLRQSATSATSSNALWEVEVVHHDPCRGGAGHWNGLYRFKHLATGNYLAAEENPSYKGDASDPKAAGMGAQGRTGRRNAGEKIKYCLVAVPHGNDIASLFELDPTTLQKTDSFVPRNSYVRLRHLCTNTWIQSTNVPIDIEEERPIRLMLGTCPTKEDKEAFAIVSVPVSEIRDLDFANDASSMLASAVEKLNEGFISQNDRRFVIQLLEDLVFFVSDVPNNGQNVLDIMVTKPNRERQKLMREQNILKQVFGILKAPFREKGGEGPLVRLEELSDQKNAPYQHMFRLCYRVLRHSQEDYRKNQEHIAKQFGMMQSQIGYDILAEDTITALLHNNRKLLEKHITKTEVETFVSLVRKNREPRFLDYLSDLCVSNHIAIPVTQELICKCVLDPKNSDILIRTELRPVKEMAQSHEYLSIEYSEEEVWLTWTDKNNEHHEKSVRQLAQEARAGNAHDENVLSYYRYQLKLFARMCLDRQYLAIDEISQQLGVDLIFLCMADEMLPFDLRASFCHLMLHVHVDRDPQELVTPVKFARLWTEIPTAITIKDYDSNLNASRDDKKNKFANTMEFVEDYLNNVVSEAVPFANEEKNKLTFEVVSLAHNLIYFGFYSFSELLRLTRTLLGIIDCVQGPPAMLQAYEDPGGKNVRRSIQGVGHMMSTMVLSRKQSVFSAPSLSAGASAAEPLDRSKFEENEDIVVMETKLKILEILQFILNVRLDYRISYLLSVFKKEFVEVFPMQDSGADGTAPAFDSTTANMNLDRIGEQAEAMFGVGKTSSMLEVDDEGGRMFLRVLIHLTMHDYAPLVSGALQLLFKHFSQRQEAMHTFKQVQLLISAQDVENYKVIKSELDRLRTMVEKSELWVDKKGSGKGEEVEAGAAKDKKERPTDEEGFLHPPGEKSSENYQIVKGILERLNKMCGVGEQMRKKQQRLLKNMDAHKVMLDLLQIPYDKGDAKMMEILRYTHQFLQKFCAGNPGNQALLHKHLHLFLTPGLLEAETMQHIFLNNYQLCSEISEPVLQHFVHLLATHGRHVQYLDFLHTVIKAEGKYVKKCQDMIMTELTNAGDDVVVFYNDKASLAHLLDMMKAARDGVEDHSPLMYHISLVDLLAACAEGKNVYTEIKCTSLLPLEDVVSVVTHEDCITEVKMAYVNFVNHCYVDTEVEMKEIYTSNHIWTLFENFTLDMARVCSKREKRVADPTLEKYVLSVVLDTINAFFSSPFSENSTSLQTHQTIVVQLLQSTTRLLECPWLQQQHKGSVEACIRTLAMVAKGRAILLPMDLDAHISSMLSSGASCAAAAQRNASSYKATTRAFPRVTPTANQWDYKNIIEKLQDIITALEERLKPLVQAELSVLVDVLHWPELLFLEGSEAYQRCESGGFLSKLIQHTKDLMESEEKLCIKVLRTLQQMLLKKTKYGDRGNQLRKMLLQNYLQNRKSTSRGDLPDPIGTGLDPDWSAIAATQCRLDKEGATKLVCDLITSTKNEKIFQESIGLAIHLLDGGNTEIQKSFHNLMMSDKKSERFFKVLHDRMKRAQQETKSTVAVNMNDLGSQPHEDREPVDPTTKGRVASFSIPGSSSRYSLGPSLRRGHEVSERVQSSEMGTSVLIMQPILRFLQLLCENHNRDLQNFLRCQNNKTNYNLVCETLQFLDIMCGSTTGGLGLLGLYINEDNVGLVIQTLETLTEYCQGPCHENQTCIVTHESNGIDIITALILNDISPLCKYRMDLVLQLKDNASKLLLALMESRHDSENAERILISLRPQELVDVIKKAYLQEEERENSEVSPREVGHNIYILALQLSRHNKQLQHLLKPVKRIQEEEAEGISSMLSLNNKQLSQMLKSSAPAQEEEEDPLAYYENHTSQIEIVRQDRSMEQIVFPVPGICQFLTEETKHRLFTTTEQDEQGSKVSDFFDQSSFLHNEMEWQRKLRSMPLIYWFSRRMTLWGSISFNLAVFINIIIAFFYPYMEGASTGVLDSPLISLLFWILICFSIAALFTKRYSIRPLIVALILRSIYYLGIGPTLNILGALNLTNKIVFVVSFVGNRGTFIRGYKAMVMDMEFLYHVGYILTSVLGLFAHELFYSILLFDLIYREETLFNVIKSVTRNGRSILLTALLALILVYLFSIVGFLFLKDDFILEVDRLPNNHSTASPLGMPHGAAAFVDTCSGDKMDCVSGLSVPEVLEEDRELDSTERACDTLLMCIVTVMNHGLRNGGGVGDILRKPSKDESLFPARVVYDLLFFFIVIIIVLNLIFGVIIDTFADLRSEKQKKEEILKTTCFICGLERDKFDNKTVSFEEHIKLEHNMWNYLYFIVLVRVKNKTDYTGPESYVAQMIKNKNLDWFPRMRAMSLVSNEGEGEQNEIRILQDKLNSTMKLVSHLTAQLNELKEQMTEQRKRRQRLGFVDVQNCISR
# UniProt Q9H1K1: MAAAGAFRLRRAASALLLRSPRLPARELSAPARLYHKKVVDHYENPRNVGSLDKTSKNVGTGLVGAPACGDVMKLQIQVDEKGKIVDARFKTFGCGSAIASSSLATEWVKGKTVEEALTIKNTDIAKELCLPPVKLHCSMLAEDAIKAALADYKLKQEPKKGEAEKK
# UniProt Q86Y91: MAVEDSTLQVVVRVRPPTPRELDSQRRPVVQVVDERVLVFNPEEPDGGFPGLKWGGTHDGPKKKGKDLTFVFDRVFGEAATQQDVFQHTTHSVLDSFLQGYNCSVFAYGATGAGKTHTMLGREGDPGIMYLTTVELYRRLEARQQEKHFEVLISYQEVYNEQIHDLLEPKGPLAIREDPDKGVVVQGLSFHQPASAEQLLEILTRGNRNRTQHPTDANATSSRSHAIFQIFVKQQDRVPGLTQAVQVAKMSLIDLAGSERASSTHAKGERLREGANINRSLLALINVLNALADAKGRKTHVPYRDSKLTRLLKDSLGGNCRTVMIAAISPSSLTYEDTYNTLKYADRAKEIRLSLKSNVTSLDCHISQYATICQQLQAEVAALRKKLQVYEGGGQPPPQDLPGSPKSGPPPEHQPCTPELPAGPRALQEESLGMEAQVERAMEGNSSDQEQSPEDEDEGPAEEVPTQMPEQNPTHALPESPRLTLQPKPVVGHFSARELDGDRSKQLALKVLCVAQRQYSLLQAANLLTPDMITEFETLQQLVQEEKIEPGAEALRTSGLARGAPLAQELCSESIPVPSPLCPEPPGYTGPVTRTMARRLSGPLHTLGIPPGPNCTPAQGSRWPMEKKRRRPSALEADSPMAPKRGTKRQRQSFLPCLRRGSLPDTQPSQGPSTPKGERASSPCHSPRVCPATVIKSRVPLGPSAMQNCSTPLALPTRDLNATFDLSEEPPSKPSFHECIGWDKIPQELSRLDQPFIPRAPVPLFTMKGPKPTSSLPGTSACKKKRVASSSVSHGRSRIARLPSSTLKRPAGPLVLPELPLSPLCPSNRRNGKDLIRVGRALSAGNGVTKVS
# UniProt Q9Y2K7, 707-733: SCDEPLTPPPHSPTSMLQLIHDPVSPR
# Some of the results follow. The data scatter; read single values as rough.
# Compound: ClCC(=O)N[C@@H]1CCCc2ccccc12
# Test: log2 mean competition ratio of IA-DTB cysteine labelling (DMSO/compound) (log2 ratio); higher = stronger cysteine engagement by compound
# Settings: 50 µM; treatment time: 4 h; cell line lysate: HEK293T
# Protocol: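 IA-DTB competitive cysteine chemoproteomics in HEK293T RIPA lysate. Lysates were treated with compound 29 or 30 at 50 or 200 µM for 4 h, then IA-DTB (500 µM, 1 h), trypsin-digested, NeutrAvidin-enriched and analysed by diaPASEF. Competition ratio = intensity DMSO / intensity compound (n=4 treated, n=64 DMSO); binding: mean log2 CR ≥ 1 and p ≤ 0.05 plus QC filters. Target is the cysteine site.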
row,Target,log2 mean competition ratio
1,KIF20A C407 (UniProt O95235),-0.0714
2,IRS4 C257,0.61
3,IRF3 C222 (UniProt Q14653),-0.293
4,KIAA1217 C1693 (UniProt Q5T5P2),-0.00337
5,ITCH C871 (UniProt Q96J02),0.443
6,KBTBD2 C524 (UniProt Q8IY47),-0.214
7,KDM3A C349 (UniProt Q9Y4C1),-0.373
8,KDM5B C225 (UniProt Q9UGL1),-0.133
9,KBTBD11 C537 (UniProt O94819),-0.343
10,ITPR3 C420 (UniProt Q14573),0.317
11,KDM3A C1140 (UniProt Q9Y4C1),0.0113
12,ISCU C69 (UniProt Q9H1K1),0.0219
13,ITPRID2 C703 (UniProt P28290),0.448
14,ITPR1 C1197 (UniProt Q14643),0.0727
15,KDM1B C331 (UniProt Q8NB78),0.176
16,KIF1C C350 (UniProt O43896),-0.111
17,KIF22 C65 (UniProt Q14807),-0.0582

row,Target,log2 mean competition ratio
1,KIAA1671 C554,0.0538
2,KIF21A C204,-0.106
3,ITPR1 C1406 (UniProt Q14643),0.0147
4,KIF18B C782 (UniProt Q86Y91),0.215
5,KIF23 C412 (UniProt Q02241),-0.465
6,KDM7A C492,0.0372
7,KDM2A C708 (UniProt Q9Y2K7),0.376
8,KIAA1107 C515,-0.0165
9,KIF11 C734 (UniProt P52732),0.22
10,KIF13B C1529 (UniProt Q9NQT8),0.675
11,ITPR3 C1638 (UniProt Q14573),-0.0965
12,KDM1A C491 (UniProt O60341),-0.178
13,KIDINS220 C412 (UniProt Q9ULH0),-0.122
14,JARID2 C1210 (UniProt Q92833),-0.0478
15,ITPR2 C420 (UniProt Q14571),-0.0339
16,KIF20A C43 (UniProt O95235),-0.392
17,JPH1 C101 (UniProt Q9HDC5),-0.177

# Same assay, conditions: 200 µM; treatment time: 4 h; cell line lysate: HEK293T
row,Target,log2 mean competition ratio
1,KIF20A C407 (UniProt O95235),-0.0159
2,IRS4 C257,0.026
3,IRF3 C222 (UniProt Q14653),-0.0482
4,KIAA1217 C1693 (UniProt Q5T5P2),0.301
5,ITCH C871 (UniProt Q96J02),-0.111
6,KBTBD2 C524 (UniProt Q8IY47),-0.14
7,KDM3A C349 (UniProt Q9Y4C1),0.248
8,KDM5B C225 (UniProt Q9UGL1),-0.235
9,KIF18B C513 (UniProt Q86Y91),0.219
10,KBTBD11 C537 (UniProt O94819),-0.27
11,ITPR3 C420 (UniProt Q14573),-0.443
12,KIAA1522 C321 (UniProt Q9P206),-0.358
13,KDM3A C1140 (UniProt Q9Y4C1),0.103
14,ISCU C69 (UniProt Q9H1K1),0.137
15,ITPRID2 C703 (UniProt P28290),0.256
16,ITPR1 C1197 (UniProt Q14643),-0.0582
17,KIF4A C1171 (UniProt O95239),0.277
18,KDM1B C331 (UniProt Q8NB78),-0.174
19,KIF1C C350 (UniProt O43896),-0.174

row,Target,log2 mean competition ratio
1,KIF22 C65 (UniProt Q14807),0.267
2,KIAA1671 C554,-0.04
3,KIF21A C204,0.132
4,ITPR1 C1406 (UniProt Q14643),-0.117
5,KIF18B C782 (UniProt Q86Y91),-0.127
6,KIF23 C412 (UniProt Q02241),-0.595
7,KDM7A C492,0.05
8,KDM2A C708 (UniProt Q9Y2K7),0.111
9,KIAA1107 C515,0.317
10,KIF11 C734 (UniProt P52732),-0.0808
11,KIF13B C1529 (UniProt Q9NQT8),-0.456
12,ITPR3 C1638 (UniProt Q14573),0.0414
13,KDM1A C491 (UniProt O60341),0.00102
14,KIDINS220 C412 (UniProt Q9ULH0),-0.047
15,JARID2 C1210 (UniProt Q92833),0.149
16,ITPR2 C420 (UniProt Q14571),-0.0785
17,KIF20A C43 (UniProt O95235),-0.351
18,JPH1 C101 (UniProt Q9HDC5),-0.0602
